# The other results are listed elsewhere or left out.
# B1: MtEccB1 (Mycobacterium tuberculosis H37Rv), O69734 (protein)
# chain: MGLRLTTKVQVSGWRFLLRRLEHAIVRRDTRMFDDPLQFYSRSIALGIVVAVLILAGAALLAYFKPQGKLGGTSLFTDRATNQLYVLLSGQLHPVYNLTSARLVLGNPANPATVKSSELSKLPMGQTVGIPGAPYATPVSAGSTSIWTLCDTVARADSTSPVVQTAVIAMPLEIDASIDPLQSHEAVLVSYQGETWIVTTKGRHAIDLTDRALTSSMGIPVTARPTPISEGMFNALPDMGPWQLPPIPAAGAPNSLGLPDDLVIGSVFQIHTDKGPQYYVVLPDGIAQVNATTAAALRATQAHGLVAPPAMVPSLVVRIAERVYPSPLPDEPLKIVSRPQDPALCWSWQRSAGDQSPQSTVLSGRHLPISPSAMNMGIKQIHGTATVYLDGGKFVALQSPDPRYTESMYYIDPQGVRYGVPNAETAKSLGLSSPQNAPWEIVRLLVDGPVLSKDAALLEHDTLPADPSPRKVPAGASGAP
# How the values were obtained:
# Experiment in all cases: glycan array binding signal (z-score within array); higher = stronger binding
# Details in all cases: glycan notation: IUPAC condensed, linker removed
# [1] = target: Neu5Ac(a2-3)Gal(b1-3)GlcNAc
# Procedure, shortened: (§1)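 Glycan array binding is given as a within-array Z-score, which can be read as non-binding when negative. The arrays, 3228 of them, came from the Consortium for Functional Glycomics database and were retained only where the protein sequence was available. Z-scores were averaged across arrays of the same protein sequence at different concentrations or buffers and across linkers.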
# [2] = target: Neu5Ac(a2-3)Gal(b1-3)GlcNAc(b1-2)Man
# Procedure, shortened: as §1
# [3] = target: Neu5Ac(a2-3)Gal(b1-3)GlcNAc(b1-2)Man(a1-3)[GlcNAc(b1-4)][Neu5Ac(a2-3)Gal(b1-3)GlcNAc(b1-2)Man(a1-6)]Man(b1-4)GlcNAc(b1-4)GlcNAc
# Procedure, shortened: as §1
# [4] = target: Neu5Ac(a2-3)Gal(b1-3)GlcNAc(b1-2)Man(a1-3)[Neu5Ac(a2-3)Gal(b1-3)GlcNAc(b1-2)Man(a1-6)]Man(b1-4)GlcNAc(b1-4)GlcNAc
# Procedure, shortened: as §1
# [5] = target: Neu5Ac(a2-3)Gal(b1-3)GlcNAc(b1-2)[Neu5Ac(a2-3)Gal(b1-3)GlcNAc(b1-4)]Man(a1-6)[Neu5Ac(a2-3)Gal(b1-3)GlcNAc(b1-2)Man(a1-3)]Man(b1-4)GlcNAc(b1-4)GlcNAc
# Procedure, shortened: as §1
# [6] = target: Neu5Ac(a2-3)Gal(b1-3)GlcNAc(b1-3)Gal(b1-3)GlcNAc
# Procedure, shortened: as §1
# [7] = target: Neu5Ac(a2-3)Gal(b1-3)GlcNAc(b1-3)Gal(b1-4)GlcNAc
# Procedure, shortened: as §1
# [8] = target: Neu5Ac(a2-3)Gal(b1-3)GlcNAc(b1-3)GalNAc
# Procedure, shortened: as §1
# [9] = target: Neu5Ac(a2-3)Gal(b1-3)GlcNAc(b1-6)GalNAc
# Procedure, shortened: as §1
# [10] = target: Neu5Ac(a2-3)Gal(b1-3)GlcNAc6S
# Procedure, shortened: as §1
# [11] = target: Neu5Ac(a2-3)Gal(b1-3)[Fuc(a1-4)]GlcNAc
# Procedure, shortened: as §1
# [12] = target: Neu5Ac(a2-3)Gal(b1-3)[Fuc(a1-4)]GlcNAc(b1-3)Gal(b1-3)[Fuc(a1-4)]GlcNAc
# Procedure, shortened: as §1
# [13] = target: Neu5Ac(a2-3)Gal(b1-3)[Fuc(a1-4)]GlcNAc(b1-3)Gal(b1-4)[Fuc(a1-3)]GlcNAc
# Procedure, shortened: as §1
# [14] = target: Neu5Ac(a2-3)Gal(b1-3)[GlcNAc(b1-6)]GalNAc
# Procedure, shortened: as §1
# [15] = target: Neu5Ac(a2-3)Gal(b1-3)[Neu5Ac(a2-6)]GalNAc
# Procedure, shortened: as §1
# [16] = target: Neu5Ac(a2-3)Gal(b1-3)[Neu5Ac(a2-6)]GlcNAc(b1-3)[Fuc(a1-3)[Gal(b1-4)]GlcNAc(b1-6)]Gal(b1-4)Glc
# Procedure, shortened: as §1
# [17] = target: Neu5Ac(a2-3)Gal(b1-3)]Neu5Ac(a2-3)Gal(b1-4)]GlcNAc
# Procedure, shortened: as §1
# Neu5Ac(a2-3)Gal(b1-4)Glc = target: Neu5Ac(a2-3)Gal(b1-4)Glc
# Procedure, shortened: as §1
# [18] = target: Neu5Ac(a2-3)Gal(b1-4)GlcNAc
# Procedure, shortened: as §1
# [19] = target: Neu5Ac(a2-3)Gal(b1-4)GlcNAc(b1-2)Man
# Procedure, shortened: as §1
# [20] = target: Neu5Ac(a2-3)Gal(b1-4)GlcNAc(b1-2)Man(a1-3)[GlcNAc(b1-4)][Neu5Ac(a2-3)Gal(b1-4)GlcNAc(b1-2)Man(a1-6)]Man(b1-4)GlcNAc(b1-4)GlcNAc
# Procedure, shortened: as §1
# [21] = target: Neu5Ac(a2-3)Gal(b1-4)GlcNAc(b1-2)Man(a1-3)[Neu5Ac(a2-3)Gal(b1-4)GlcNAc(b1-2)Man(a1-6)]Man(b1-4)GlcNAc(b1-4)GlcNAc
# Procedure, shortened: as §1
# [22] = target: Neu5Ac(a2-3)Gal(b1-4)GlcNAc(b1-2)Man(a1-3)[Neu5Ac(a2-3)Gal(b1-4)GlcNAc(b1-2)Man(a1-6)]Man(b1-4)GlcNAc(b1-4)[Fuc(a1-6)]GlcNAc
# Procedure, shortened: as §1
# [23] = target: Neu5Ac(a2-3)Gal(b1-4)GlcNAc(b1-2)Man(a1-3)[Neu5Ac(a2-6)Gal(b1-4)GlcNAc(b1-2)Man(a1-6)]Man(b1-4)GlcNAc(b1-4)GlcNAc
# Procedure, shortened: as §1
# [24] = target: Neu5Ac(a2-3)Gal(b1-4)GlcNAc(b1-2)[Neu5Ac(a2-3)Gal(b1-4)GlcNAc(b1-4)]Man(a1-3)[GlcNAc(b1-4)][Neu5Ac(a2-3)Gal(b1-4)GlcNAc(b1-2)[Neu5Ac(a2-3)Gal(b1-4)GlcNAc(b1-6)]Man(a1-6)]Man(b1-4)GlcNAc(b1-4)GlcNAc
# Procedure, shortened: as §1
# [25] = target: Neu5Ac(a2-3)Gal(b1-4)GlcNAc(b1-2)[Neu5Ac(a2-3)Gal(b1-4)GlcNAc(b1-4)]Man(a1-3)[GlcNAc(b1-4)][Neu5Ac(a2-3)Gal(b1-4)GlcNAc(b1-4)Man(a1-6)]Man(b1-4)GlcNAc(b1-4)GlcNAc
# Procedure, shortened: as §1
# [26] = target: Neu5Ac(a2-3)Gal(b1-4)GlcNAc(b1-2)[Neu5Ac(a2-3)Gal(b1-4)GlcNAc(b1-6)]Man(a1-6)[Neu5Ac(a2-3)Gal(b1-4)GlcNAc(b1-2)Man(a1-3)][GlcNAc(b1-4)]Man(b1-4)GlcNAc(b1-4)GlcNAc
# Procedure, shortened: as §1
# [27] = target: Neu5Ac(a2-3)Gal(b1-4)GlcNAc(b1-3)Gal
# Procedure, shortened: as §1
# [28] = target: Neu5Ac(a2-3)Gal(b1-4)GlcNAc(b1-3)Gal(b1-3)GlcNAc
# Procedure, shortened: as §1
# [29] = target: Neu5Ac(a2-3)Gal(b1-4)GlcNAc(b1-3)Gal(b1-4)GlcNAc
# Procedure, shortened: as §1
# [30] = target: Neu5Ac(a2-3)Gal(b1-4)GlcNAc(b1-3)Gal(b1-4)GlcNAc(b1-2)Man(a1-3)[Neu5Ac(a2-3)Gal(b1-4)GlcNAc(b1-3)Gal(b1-4)GlcNAc(b1-2)Man(a1-6)]Man(b1-4)GlcNAc(b1-4)GlcNAc
# Procedure, shortened: as §1
# [31] = target: Neu5Ac(a2-3)Gal(b1-4)GlcNAc(b1-3)Gal(b1-4)GlcNAc(b1-3)Gal(b1-4)GlcNAc
# Procedure, shortened: as §1
# [32] = target: Neu5Ac(a2-3)Gal(b1-4)GlcNAc(b1-3)Gal(b1-4)GlcNAc(b1-3)Gal(b1-4)GlcNAc(b1-2)Man(a1-3)[Neu5Ac(a2-3)Gal(b1-4)GlcNAc(b1-3)Gal(b1-4)GlcNAc(b1-3)Gal(b1-4)GlcNAc(b1-2)Man(a1-6)]GalNAc
# Procedure, shortened: as §1
# [33] = target: Neu5Ac(a2-3)Gal(b1-4)GlcNAc(b1-3)Gal(b1-4)GlcNAc(b1-3)GalNAc
# Procedure, shortened: as §1
# [34] = target: Neu5Ac(a2-3)Gal(b1-4)GlcNAc(b1-3)Gal(b1-4)GlcNAc(b1-3)[Neu5Ac(a2-3)Gal(b1-4)GlcNAc(b1-3)Gal(b1-4)GlcNAc(b1-6)]GalNAc
# Procedure, shortened: as §1
# [35] = target: Neu5Ac(a2-3)Gal(b1-4)GlcNAc(b1-3)Gal(b1-4)GlcNAc(b1-6)[Gal(b1-3)]GalNAc
# Procedure, shortened: as §1
# [36] = target: Neu5Ac(a2-3)Gal(b1-4)GlcNAc(b1-3)Gal(b1-4)[Fuc(a1-3)]GlcNAc
# Procedure, shortened: as §1
# [37] = target: Neu5Ac(a2-3)Gal(b1-4)GlcNAc(b1-3)GalNAc
# Procedure, shortened: as §1
binder,measurement,setting,value
B1,glycan array binding signal (z-score),[1],0.138
same,glycan array binding signal (z-score),[2],-1.36
same,glycan array binding signal (z-score),[3],-0.228
same,glycan array binding signal (z-score),[4],0.99
same,glycan array binding signal (z-score),[5],0.687
same,glycan array binding signal (z-score),[6],-0.665
same,glycan array binding signal (z-score),[7],-0.6
same,glycan array binding signal (z-score),[8],0.017
same,glycan array binding signal (z-score),[9],-0.342
same,glycan array binding signal (z-score),[10],-0.146
same,glycan array binding signal (z-score),[11],1.24
same,glycan array binding signal (z-score),[12],-1.74
same,glycan array binding signal (z-score),[13],0.263
same,glycan array binding signal (z-score),[14],-1.55
same,glycan array binding signal (z-score),[15],0.161
same,glycan array binding signal (z-score),[16],-0.202
same,glycan array binding signal (z-score),[17],0.038
same,glycan array binding signal (z-score),Neu5Ac(a2-3)Gal(b1-4)Glc,0.432
same,glycan array binding signal (z-score),[18],-0.992
same,glycan array binding signal (z-score),[19],0.566
same,glycan array binding signal (z-score),[20],4.06
same,glycan array binding signal (z-score),[21],-1.57
same,glycan array binding signal (z-score),[22],-0.813
same,glycan array binding signal (z-score),[23],-0.619
same,glycan array binding signal (z-score),[24],-0.204
same,glycan array binding signal (z-score),[25],-0.296
same,glycan array binding signal (z-score),[26],-0.334
same,glycan array binding signal (z-score),[27],0.951
same,glycan array binding signal (z-score),[28],-1.08
same,glycan array binding signal (z-score),[29],0.98
same,glycan array binding signal (z-score),[30],0.499
same,glycan array binding signal (z-score),[31],0.229
same,glycan array binding signal (z-score),[32],2.66
same,glycan array binding signal (z-score),[33],-0.354
same,glycan array binding signal (z-score),[34],-0.138
same,glycan array binding signal (z-score),[35],-2.62
same,glycan array binding signal (z-score),[36],0.18
same,glycan array binding signal (z-score),[37],-0.729

# Three neighbouring entries already listed, quoted:
binder,measurement,setting,value
B1,glycan array binding signal (z-score),[23],-0.619
same,glycan array binding signal (z-score),[24],-0.204
same,glycan array binding signal (z-score),[25],-0.296
